Taken from: PubChem BioAssay AID1671195 (Yale University, 2021)

Test: 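Regulators of LDL receptor activity judged by labelled LDL uptake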 (primary screen)
System: human Huh7 hepatoma cells
Reagent: siRNA pool against human genes, 18 nM
Timing: about 2 to 2.5 days of knockdown, then 8 h LDL uptake
Conditions: DiI-labelled LDL at 30 µg/ml for 8 h, in lipoprotein-deficient serum medium
Detection: 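Per-cell DiI-LDL intensity by automated imaging; well means scaled to the plate median and given as a robust z-score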
Scale: robust z-score: higher = more LDL uptake after knockdown
Call rule: 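a gene counts as active if at least two replicate z-scores exceed ±2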
Here is a random part of about 22,000 deposited reagents. Over the whole deposit, about 1,510 (6.9%) are marked active. 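Active includes knockdowns raising or lowering LDL uptake; positive z-scores mean more uptake, negative mean less.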 Entries without a mark were called inactive.

gene | robust z-score, replicate 1 | robust z-score, replicate 2 | robust z-score, replicate 3
GLRA3 (GeneID 8001) | 1.05 | 0.848 | 0.507
PKN2 (GeneID 5586) | 1.44 | 1.98 | 1.58
HSPB9 (GeneID 94086) | 1.25 | 1.88 | 2.12
REV3L (GeneID 5980) | 0.366 | 0.858 | 0.942
LOC441016 (retired record) (GeneID 441016) | 4.19 (active) | 4.26 | 4.16
MRM2 (GeneID 29960) | 0.562 | -0.0621 | 0.19
GTPBP2 (GeneID 54676) | 0.124 | 1.01 | 0.891
LOC387701 (retired record) (GeneID 387701) | -1.29 | -0.0844 | -1.55
ISYNA1 (GeneID 51477) | 0.202 | -0.325 | -0.197
ACTL11P (GeneID 389120) | 0.147 | 0.0132 | 0.376
AGXT (GeneID 189) | -2.14 | -1.58 | -1.74
CLDND2 (GeneID 125875) | 0.00238 | 0.204 | 0.317
ITM2B (GeneID 9445) | 2.19 | 1.53 | 0.975
ZG16B (GeneID 124220) | -1.5 | -1.17 | -1.23
ZNF683 (GeneID 257101) | -1.44 | -1.55 | -1.06
BACE1 (GeneID 23621) | -0.196 | 0.946 | 0.287
PAIP1 (GeneID 10605) | 2.72 | 1.54 | 0.655
HMGN4 (GeneID 10473) | -0.955 | -0.301 | -0.308
TARDBPP2 (GeneID 440142) | -0.312 | -0.703 | -0.257
GRIP1 (GeneID 23426) | -0.602 | 0.735 | -0.667
KCNC1 (GeneID 3746) | 1.13 | 1.51 | 1.01
SLC12A7 (GeneID 10723) | -1.91 | -1.81 | -1.7
LOC139116 (retired record) (GeneID 139116) | 0.468 | 0.738 | 1.56
LOC399707 (retired record) (GeneID 399707) | 0.141 | 0.544 | 0.00258
SPMIP3 (GeneID 200159) | -1.72 | -1.28 | -1.29
TBC1D21 (GeneID 161514) | -0.489 | -0.688 | 0.0637
PDGFB (GeneID 5155) | -0.613 | -1.54 | -0.157
TADA2A (GeneID 6871) | 0.87 | 0.688 | 0.749
SYCP3 (GeneID 50511) | 0.203 | 1.63 | 0.638
DUSP23 (GeneID 54935) | 0.941 | 0.617 | 1.87
H2BC1 (GeneID 255626) | 0.341 | 0.396 | 0.0884
NUP98 (GeneID 4928) | 0.682 | 0.235 | 0.673
EVC (GeneID 2121) | -0.482 | 0.0708 | -0.0318
GKAP1 (GeneID 80318) | -0.915 | 0.0363 | 0.0106
LINC01734 (GeneID 339568) | 0.365 | 0.392 | 0.274
FNDC11 (GeneID 79025) | -0.0529 | -1.09 | 0.462
NACA3P (GeneID 389240) | 0.696 | -0.0166 | 0.488
RNF19B (GeneID 127544) | 1.69 | 0.959 | 0.125
TMSB15A (GeneID 11013) | 0.723 | 1.35 | 1.45
C19orf48P (GeneID 84798) | -0.391 | -0.204 | -0.226
NHLRC2 (GeneID 374354) | 0.374 | 0.159 | 1.86
WDR81 (GeneID 124997) | -0.792 | -1.05 | -1.28
RAB13 (GeneID 5872) | -0.638 | -1.18 | -0.138
OR4C12 (GeneID 283093) | -0.119 | -0.387 | -0.137
CDKL1 (GeneID 8814) | 0.957 | 1.02 | 1.43
EGFLAM (GeneID 133584) | -0.278 | -0.976 | -2.28
KCNJ8 (GeneID 3764) | -0.0264 | -0.313 | 0.527
RDH13 (GeneID 112724) | -0.0581 | 1.09 | 0.0315
HHEX (GeneID 3087) | -0.847 | -0.0629 | 0.291
DNAJC12 (GeneID 56521) | 0.943 | 0.894 | 1.38
YPLR6490 (retired record) (GeneID 389102) | -0.908 | -0.936 | -0.823

A few values from the list.
For “robust z-score, replicate 2”, MRM2 (GeneID 29960) shows -0.0621
RNF19B (GeneID 127544), robust z-score, replicate 2 → 0.959
Under “robust z-score, replicate 3”, REV3L (GeneID 5980) is entered as 0.942
NACA3P (GeneID 389240), robust z-score, replicate 1: 0.696
Entry of LOC441016 (retired record) (GeneID 441016) in “robust z-score, replicate 1”: 4.19 (active)
Value for ZG16B (GeneID 124220) in “robust z-score, replicate 1”: -1.5

Additional reagents follow:
gene | robust z-score, replicate 1 | robust z-score, replicate 2 | robust z-score, replicate 3
CLNS1A (GeneID 1207) | 2.41 | 1.52 | 1.08
ALDOC (GeneID 230) | -0.267 | -0.422 | -0.626
AGAP1 (GeneID 116987) | 1.05 | 0.505 | 1.06
MAPKAPK5 (GeneID 8550) | -0.635 | -1.04 | -0.528
VARS2 (GeneID 57176) | -0.325 | 0.58 | -0.198
WWC2-AS2 (GeneID 152641) | 0.924 | 0.547 | 1.05
VGF (GeneID 7425) | -0.815 | -1.06 | -0.618
PDE6H (GeneID 5149) | 0.103 | -0.0855 | -0.357
NRBP1 (GeneID 29959) | 0.207 | -0.122 | -0.132
LOC401052 (retired record) (GeneID 401052) | -0.361 | -0.233 | -0.243
LOC400708 (retired record) (GeneID 400708) | 0.322 | 0.659 | 0.432
GDAP1L1 (GeneID 78997) | -0.251 | -0.00609 | -0.21
SMARCD2 (GeneID 6603) | -0.477 | 0.368 | -0.0269
AP4B1 (GeneID 10717) | -0.589 | -0.491 | -0.365
SLC44A3 (GeneID 126969) | 0.604 | -0.0197 | -0.587
GALNT5 (GeneID 11227) | -1.48 | 0.262 | -1.5
MAP7D2 (GeneID 256714) | -0.892 | -0.544 | -0.619
SLC22A1 (GeneID 6580) | -1.22 | -0.969 | -0.811
KRTAP4-7 (GeneID 100132476) | -1.11 | -1.21 | -1.2
PSMA2 (GeneID 5683) | 1.5 | 1.55 | 2.45
ART3 (GeneID 419) | 0.402 | -0.749 | -0.0166
RPL7P48 (GeneID 388401) | -0.925 | -0.596 | -1.22
PBX2 (GeneID 5089) | -0.237 | 0.126 | 0.0358
IFNLR1 (GeneID 163702) | 0.544 | -0.332 | 0.024
TMEM123 (GeneID 114908) | 1.18 | 0.428 | 0.00957
LOC401062 (retired record) (GeneID 401062) | -1.22 | -0.948 | -0.983
LOC387883 (retired record) (GeneID 387883) | -0.714 | -0.562 | -0.569
TAS2R1 (GeneID 50834) | -1.18 | -1.37 | -0.959
CGREF1 (GeneID 10669) | 0.0582 | -0.0575 | 0.116
FOXD4L4 (GeneID 349334) | 0.0857 | -0.0947 | -0.484
LOC391295 (retired record) (GeneID 391295) | 1.55 | 1.81 | 1.67
CYP4F24P (GeneID 388514) | 2.77 (active) | 2.7 | 2.9
CLSTN1 (GeneID 22883) | -0.216 | 0.261 | 0.529
ANKRD34B (GeneID 340120) | 0.427 | 0.501 | 0.327
DNAJC27 (GeneID 51277) | 1.34 | -0.404 | 0.0713
CRYZL1 (GeneID 9946) | -0.96 | -0.783 | -1.12
